Values from PubChem BioAssay AID1259424 (University of Nebraska Medical Center, 2018).
The whole screen tested about 14,000 reagents; this is an unselected part. 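Higher correlation or smaller distance means closer resemblance to KSR1 loss; control wells, including KSR1 knockdowns, recur on many plates.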 Not all columns of the deposit are shown. Reagent sequences are not shown. The record does not give: the time to read-out.

- Purpose: 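Rank knockdowns across the genome by resemblance to the KSR1 depletion profile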 (primary screen)
- System: human HCT116 colon cancer cells
- Reagents: siRNA pool against human genes, 50 nM
- Measurement: 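Log2 levels of six mRNAs (branched-DNA multiplex), adjusted by two reference genes and the non-targeting median, then scored against the average KSR1 knockdown pattern as Pearson r and euclidean distance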
- Reading the numbers: mean correlation with KSR1 profile and KSR1 correlation: higher = expression change more like KSR1 knockdown; mean distance from KSR1 profile: higher = expression change less like KSR1 knockdown

| gene knocked down | mean correlation with KSR1 profile | mean distance from KSR1 profile | KSR1 correlation, replicate 1 | KSR1 correlation, replicate 2 |
| --- | --- | --- | --- | --- |
| HLCS | -0.266 | 2.79 | -0.0507 | -0.436 |
| ELOVL7 | 0.423 | 1.52 | 0.533 | 0.543 |
| P2RX4 | -0.035 | 0.947 | 0.392 | 0.544 |
| AGPAT3 | 0.538 | 3.12 | 0.689 | 0.634 |
| ASTN1 | -0.0343 | 1.99 | -0.0584 | -0.098 |
| PSMA1 | 0.353 | 4.87 | 0.576 | -0.0173 |
| CD1D | 0.451 | 1.94 | 0.49 | 0.418 |
| DGCR2 | -0.177 | 2.98 | -0.0266 | -0.26 |
| CASS4 | 0.164 | 2.12 | 0.243 | 0.0427 |
| RBFA | 0.519 | 3.11 | 0.635 | 0.486 |
| TRADD | -0.674 | 2.19 | -0.559 | -0.761 |
| CNPY2 | -0.62 | 2.37 | -0.524 | -0.403 |
| PDZD2 | -0.466 | 2.32 | -0.319 | -0.6 |
| SLC22A14 | -0.602 | 2.13 | -0.405 | -0.118 |
| NUDCD1 | 0.694 | 1.86 | 0.59 | 0.605 |
| MDGA1 | 0.0457 | 2.64 | -0.0303 | 0.0163 |
| NPIPB3 | -0.459 | 1.84 | -0.555 | -0.00329 |
| MRPS9 | 0.206 | 1.8 | -0.0816 | -0.079 |
| SRP68 | -0.357 | 2.25 | -0.114 | -0.574 |
| SLC4A5 | -0.514 | 3.67 | -0.543 | -0.295 |
